Laboratory results as given in patent US4128638A (ICI Australia Limited, priority 1975, dated 1978).
For part of these data: HELM strings list residues between dots; [ac] is acetyl, [am] amide, other brackets name non-standard units.

Experiments:
[1] = general procedure: Boc solid-phase peptide synthesis; PCTFE-g-benzhydrylaminostyrene resin; PCTFE-g-chloromethylstyrene resin for alkylamides; dicyclohexylcarbodiimide; conditions: whole synthesis, scale 0.5 mmole
[2] = general procedure: Boc solid-phase peptide synthesis; PCTFE-g-benzhydrylaminostyrene resin; dicyclohexylcarbodiimide; conditions: whole synthesis, scale 0.5 mmole

L-Pyroglutamyl-L-histidyl-L-tryptophanyl-L-seryl-L-tyrosyl-β-alanyl-L- leucyl-L-arginyl-L-prolinamide
crude mass [1]: 590 mg | isolated mass [1]: 51 mg

L-Pyroglutamyl-L-histidyl-L-tryptophanyl-L-seryl-L-tyrosyl-β-alanyl-L- leucyl-L-arginyl-L-prolyl-glycinamide
crude mass [2]: 387 mg | isolated mass [2]: 138 mg

L-Pyroglutamyl-L-histidyl-L-tryptophanyl-L-seryl-L-tyrosylglycyl-L-leucyl-L-arginyl-L-prolyl-β-alaninamide
isolated mass [1]: 98 mg

PEPTIDE1{[pGlu].H.W.S.Y.G.L.R.P.[Sar].[am]}$$$$V2.0
isolated mass [1]: 48 mg
